No constants are given. Whether binding was seen depends on the method and setting.
Molecular target: ribosomal protein L11 (E. coli) (UniProt P0A7J7)
Assay: cryo-EM structure; RC-RF1•RF3 map, class of ~29,000 projection images, 9.7 Å (FSC 0.5), 70S in MS-I conformation, residual free GDP and no GTP; atomic models fitted by MDFF; both purified

Amino acid sequences for entries named in this document (tags omitted).
UniProt P0A7I4: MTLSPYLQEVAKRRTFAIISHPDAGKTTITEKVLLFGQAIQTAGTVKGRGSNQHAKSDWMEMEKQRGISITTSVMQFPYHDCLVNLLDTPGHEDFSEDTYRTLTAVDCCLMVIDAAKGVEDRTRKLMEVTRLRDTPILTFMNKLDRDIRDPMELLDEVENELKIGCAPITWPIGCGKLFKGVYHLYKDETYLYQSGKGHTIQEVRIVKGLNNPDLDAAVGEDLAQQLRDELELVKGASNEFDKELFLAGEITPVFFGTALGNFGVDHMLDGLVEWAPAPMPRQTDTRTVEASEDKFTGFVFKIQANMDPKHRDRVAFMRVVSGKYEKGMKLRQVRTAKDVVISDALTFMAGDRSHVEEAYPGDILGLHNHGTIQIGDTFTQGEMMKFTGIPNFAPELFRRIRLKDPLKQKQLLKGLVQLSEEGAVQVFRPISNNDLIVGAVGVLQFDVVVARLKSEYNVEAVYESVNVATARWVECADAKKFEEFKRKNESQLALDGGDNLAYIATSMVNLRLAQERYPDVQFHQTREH

- binding: no binding
Substance: release factor 3 (RF3), apo-form (from UniProt P0A7I4 1-529)

— PMC3677378
